No constants are given. Whether binding was seen depends on the method and setting. Binding seen in cells or lysates may run through a third protein. A result given as binding can be weak or reduced; the word gives no strength. Sequences can lack the tags named with a protein.
Target: T1, GST–NDRG2 (N-Myc downstream-regulated gene 2) (UniProt Q9UN36)
T1 sequence: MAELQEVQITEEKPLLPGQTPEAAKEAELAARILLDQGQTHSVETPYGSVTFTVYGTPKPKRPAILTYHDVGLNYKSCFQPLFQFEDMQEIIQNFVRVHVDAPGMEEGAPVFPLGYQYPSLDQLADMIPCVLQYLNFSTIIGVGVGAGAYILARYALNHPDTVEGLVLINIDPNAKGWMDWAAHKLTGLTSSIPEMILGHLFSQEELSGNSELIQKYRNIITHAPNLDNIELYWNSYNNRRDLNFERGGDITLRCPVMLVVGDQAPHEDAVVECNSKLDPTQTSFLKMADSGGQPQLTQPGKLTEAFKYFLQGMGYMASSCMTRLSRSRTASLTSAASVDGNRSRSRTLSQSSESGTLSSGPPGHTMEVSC
Assay: pull-down; GST pull-down on glutathione sepharose 4B from lysates of HEK293 cells co-transfected with GST, GST–NDRG2 or NDRG2 ΔC and HA–GSK3β; 0.5% NP40, 50 mM Tris-HCl pH 8.0, 150 mM NaCl, 4 °C overnight; immunoblotting

Sequences of proteins named here, by UniProt entry; tags and fusion partners are left off. A change or cut given only in a name is not applied to a line headed by its entry.
UniProt P67775: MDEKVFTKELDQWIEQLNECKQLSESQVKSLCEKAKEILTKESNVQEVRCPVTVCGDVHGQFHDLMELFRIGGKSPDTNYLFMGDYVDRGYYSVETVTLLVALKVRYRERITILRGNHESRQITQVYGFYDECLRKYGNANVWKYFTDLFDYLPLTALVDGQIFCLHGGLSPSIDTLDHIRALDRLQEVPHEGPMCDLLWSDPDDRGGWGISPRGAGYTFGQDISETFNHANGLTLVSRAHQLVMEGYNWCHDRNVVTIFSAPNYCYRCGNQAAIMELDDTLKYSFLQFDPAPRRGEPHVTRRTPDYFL

binding: binds
Substance: endogenous PP2Ac (protein phosphatase 2A catalytic subunit) (from UniProt P67775) (enzyme)

From article PMC6562968
